Measurements taken from article PMC5682650.
No constants are given. Whether binding was seen depends on the method and setting. In cells and extracts the contact can be indirect. Some binding calls cover weakened binding; strength is not graded here.

By UniProt entry, the sequences of proteins in these tests, tags left out. Where a name states a change or a piece, a line headed by the entry shows the natural chain unless it says otherwise. Chains listed by the source or under a name are the forms on record and can include a tag or linker. Residues count along the entry.
UniProt P42224: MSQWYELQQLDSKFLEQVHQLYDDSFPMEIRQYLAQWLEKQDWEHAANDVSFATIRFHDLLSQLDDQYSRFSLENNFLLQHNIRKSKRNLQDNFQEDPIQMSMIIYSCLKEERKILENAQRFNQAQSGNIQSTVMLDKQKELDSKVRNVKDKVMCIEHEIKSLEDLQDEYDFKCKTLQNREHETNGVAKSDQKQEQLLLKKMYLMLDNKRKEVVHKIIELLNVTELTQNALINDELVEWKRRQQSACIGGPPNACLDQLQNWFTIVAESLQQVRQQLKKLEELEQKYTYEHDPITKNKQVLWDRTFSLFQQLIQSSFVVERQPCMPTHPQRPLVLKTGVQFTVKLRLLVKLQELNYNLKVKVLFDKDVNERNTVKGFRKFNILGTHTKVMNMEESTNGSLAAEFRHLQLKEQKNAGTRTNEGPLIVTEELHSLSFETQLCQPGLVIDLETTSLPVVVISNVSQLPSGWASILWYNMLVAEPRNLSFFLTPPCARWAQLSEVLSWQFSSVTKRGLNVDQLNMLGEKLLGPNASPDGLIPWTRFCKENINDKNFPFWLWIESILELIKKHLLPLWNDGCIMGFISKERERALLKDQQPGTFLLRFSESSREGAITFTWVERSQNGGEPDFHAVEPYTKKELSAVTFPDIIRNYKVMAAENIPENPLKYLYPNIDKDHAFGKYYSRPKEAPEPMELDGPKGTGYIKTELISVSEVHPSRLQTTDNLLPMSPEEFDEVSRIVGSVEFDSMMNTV
Flag-tagged STAT1β: residues 1-712 of P42224
Flag-tagged STAT1β^Y701F (P42224-2, form named): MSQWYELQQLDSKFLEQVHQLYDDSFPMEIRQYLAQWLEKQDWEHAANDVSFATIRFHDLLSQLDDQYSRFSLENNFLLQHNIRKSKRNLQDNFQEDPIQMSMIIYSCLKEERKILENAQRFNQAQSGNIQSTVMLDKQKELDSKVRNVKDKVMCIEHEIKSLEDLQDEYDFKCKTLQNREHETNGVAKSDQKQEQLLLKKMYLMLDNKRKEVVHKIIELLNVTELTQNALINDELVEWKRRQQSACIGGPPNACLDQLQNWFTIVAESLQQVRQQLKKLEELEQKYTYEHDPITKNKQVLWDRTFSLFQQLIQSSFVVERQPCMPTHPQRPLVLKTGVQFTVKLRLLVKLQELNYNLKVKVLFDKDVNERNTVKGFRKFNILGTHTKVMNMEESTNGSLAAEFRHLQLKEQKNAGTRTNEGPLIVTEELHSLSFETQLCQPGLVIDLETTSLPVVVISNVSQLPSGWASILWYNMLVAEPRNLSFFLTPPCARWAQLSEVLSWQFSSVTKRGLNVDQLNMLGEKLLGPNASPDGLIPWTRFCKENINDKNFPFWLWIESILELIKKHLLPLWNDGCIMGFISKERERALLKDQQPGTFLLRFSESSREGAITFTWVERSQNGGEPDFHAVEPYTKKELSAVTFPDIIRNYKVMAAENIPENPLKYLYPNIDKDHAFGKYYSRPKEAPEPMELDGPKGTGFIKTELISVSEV

Biological target: STAT1α (human (endogenous in EC1 / KYSE150 cells)) (UniProt P42224)
Test: co-IP; whole-cell extracts of ESCC cells transfected with Flag-tagged STAT1β, with or without IFN-γ stimulation; IP with control IgG, anti-Flag or anti-STAT1α, protein G Plus/A beads, 4 °C overnight; western blot with anti-STAT1α and anti-Flag

binding	Substance
binds	Flag-tagged STAT1β (from UniProt P42224-2 1-712)
no binding	Flag-tagged STAT1β^Y701F (from UniProt P42224-2 1-712)
